The assay addresses GST-tagged full length USP2 (Drosophila) (UniProt Q8IQ27). The assay is described as follows: affinity purification with mass spectrometry; GST or GST-USP2 as baits with S2 cell lysate; eluates analysed by nano-LC-MS/MS; only the target purified.

Sequences of proteins named here, by UniProt entry; tags and fusion partners are left off. A change or cut given only in a name is not applied to a line headed by its entry.
UniProt Q8IQ27: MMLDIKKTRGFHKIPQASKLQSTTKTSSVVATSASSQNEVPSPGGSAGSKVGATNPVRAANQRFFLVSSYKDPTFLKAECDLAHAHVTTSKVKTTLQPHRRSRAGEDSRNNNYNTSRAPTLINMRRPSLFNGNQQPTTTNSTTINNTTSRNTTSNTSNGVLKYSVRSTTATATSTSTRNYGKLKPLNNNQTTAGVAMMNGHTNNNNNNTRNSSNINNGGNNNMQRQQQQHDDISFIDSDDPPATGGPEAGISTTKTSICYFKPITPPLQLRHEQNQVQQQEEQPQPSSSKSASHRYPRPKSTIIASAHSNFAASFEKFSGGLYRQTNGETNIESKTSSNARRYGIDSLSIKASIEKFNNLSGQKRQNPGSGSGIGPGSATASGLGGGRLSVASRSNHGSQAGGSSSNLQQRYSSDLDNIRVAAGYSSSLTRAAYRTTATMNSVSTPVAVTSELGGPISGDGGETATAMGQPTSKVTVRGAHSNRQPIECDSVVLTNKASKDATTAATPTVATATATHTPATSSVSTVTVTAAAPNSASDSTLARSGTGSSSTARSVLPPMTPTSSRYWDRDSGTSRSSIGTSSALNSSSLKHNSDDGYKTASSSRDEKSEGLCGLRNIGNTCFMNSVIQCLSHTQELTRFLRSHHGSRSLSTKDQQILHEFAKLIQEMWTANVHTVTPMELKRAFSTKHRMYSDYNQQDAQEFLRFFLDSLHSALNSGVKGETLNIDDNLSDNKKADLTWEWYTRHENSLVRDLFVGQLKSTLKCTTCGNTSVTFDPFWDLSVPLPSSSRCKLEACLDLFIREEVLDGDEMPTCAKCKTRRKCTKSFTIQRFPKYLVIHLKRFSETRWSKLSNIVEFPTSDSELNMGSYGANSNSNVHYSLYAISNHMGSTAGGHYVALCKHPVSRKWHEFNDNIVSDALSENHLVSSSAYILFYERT
UniProt O18413: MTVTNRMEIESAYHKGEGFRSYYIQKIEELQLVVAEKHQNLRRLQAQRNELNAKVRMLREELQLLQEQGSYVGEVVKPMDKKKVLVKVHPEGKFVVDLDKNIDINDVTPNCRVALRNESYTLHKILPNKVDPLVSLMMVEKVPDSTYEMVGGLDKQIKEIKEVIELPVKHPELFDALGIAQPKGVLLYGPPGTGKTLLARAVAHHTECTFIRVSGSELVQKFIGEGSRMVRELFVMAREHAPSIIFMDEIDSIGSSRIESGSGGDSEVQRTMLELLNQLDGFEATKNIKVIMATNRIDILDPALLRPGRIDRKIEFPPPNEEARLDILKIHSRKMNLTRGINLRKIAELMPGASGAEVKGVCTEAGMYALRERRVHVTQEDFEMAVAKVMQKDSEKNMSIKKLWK

The text below walks through data of paper PMC4140012.

Results are given in words; binding and its absence hold for the method and conditions named. Binding seen in cells or lysates may run through a third protein. These calls come from enrichment with a bait or labelling near it, and not all partners need be listed.

With “proteasomal subunit 8 (Pros45) (from UniProt O18413 1-405)”, the binding result is recorded as “binds”.
